Here are results for one molecule from paper PMC8894474.

The test deals with T1, GFP-epitope tagged BIN1V1 (neuronal isoform of Bridging integrator 1) (UniProt O00499).
T1 sequence: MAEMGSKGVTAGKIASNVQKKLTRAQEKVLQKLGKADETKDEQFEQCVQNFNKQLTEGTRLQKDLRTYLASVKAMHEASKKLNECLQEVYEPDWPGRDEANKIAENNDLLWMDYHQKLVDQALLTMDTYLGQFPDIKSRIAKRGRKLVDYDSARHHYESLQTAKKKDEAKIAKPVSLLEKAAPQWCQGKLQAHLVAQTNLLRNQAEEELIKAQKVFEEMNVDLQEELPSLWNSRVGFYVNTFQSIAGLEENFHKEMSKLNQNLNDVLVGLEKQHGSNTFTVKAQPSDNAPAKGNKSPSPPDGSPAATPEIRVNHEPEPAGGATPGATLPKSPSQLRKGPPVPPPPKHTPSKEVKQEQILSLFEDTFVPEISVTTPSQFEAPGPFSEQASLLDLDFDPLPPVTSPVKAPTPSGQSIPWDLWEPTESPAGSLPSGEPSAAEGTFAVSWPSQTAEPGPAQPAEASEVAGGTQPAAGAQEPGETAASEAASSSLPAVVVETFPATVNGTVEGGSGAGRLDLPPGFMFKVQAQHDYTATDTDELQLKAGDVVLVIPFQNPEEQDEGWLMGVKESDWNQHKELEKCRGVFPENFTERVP
Briefly: co-IP; cells expressing BIN1V1GFP or BIN1V9GFP without or with RIN3flag; immunoprecipitation with anti-GFP antibody, immunoblot with anti-BIN1 and anti-RIN3. (In general: A western blot detects proteins with antibodies after separation by electrophoresis.)

These are yes or no findings as the source states them, for the method shown. Binding seen in cells or lysates may run through a third protein. Some binding calls cover weakened binding; strength is not graded here. Where a sequence is shown, tags or fusion partners need not be part of it.

B1: flag-epitope tagged RIN3 (Ras and Rab interactor 3) (protein, UniProt Q8TB24 1-985)
chain: MIRHAGAPARGDPTGPVPVVGKGEEEEEEDGMRLCLPANPKNCLPHRRGISILEKLIKTCPVWLQLSLGQAEVARILHRVVAGMFLVRRDSSSKQLVLCVHFPSLNESSAEVLEYTIKEEKSILYLEGSALVFEDIFRLIAFYCVSRDLLPFTLRLPQAILEASSFTDLETIANLGLGFWDSSLNPPQERGKPAEPPRDRAPGFPLVSSLRPTAHDANCACEIELSVGNDRLWFVNPIFIEDCSSALPTDQPPLGNCPARPLPPTSDATSPTSRWAPRRPPPPPPVLPLQPCSPAQPPVLPALAPAPACPLPTSPPVPAPHVTPHAPGPPDHPNQPPMMTCERLPCPTAGLGPLREEAMKPGAASSPLQQVPAPPLPAKKNLPTAPPRRRVSERVSLEDQSPGMAAEGDQLSLPPQGTSDGPEDTPRESTEQGQDTEVKASDPHSMPELPRTAKQPPVPPPRKKRISRQLASTLPAPLENAELCTQAMALETPTPGPPREGQSPASQAGTQHPPAQATAHSQSSPEFKGSLASLSDSLGVSVMATDQDSYSTSSTEEELEQFSSPSVKKKPSMILGKARHRLSFASFSSMFHAFLSNNRKLYKKVVELAQDKGSYFGSLVQDYKVYSLEMMARQTSSTEMLQEIRTMMTQLKSYLLQSTELKALVDPALHSEEELEAIVESALYKCVLKPLKEAINSCLHQIHSKDGSLQQLKENQLVILATTTTDLGVTTSVPEVPMMEKILQKFTSMHKAYSPEKKISILLKTCKLIYDSMALGNPGKPYGADDFLPVLMYVLARSNLTEMLLNVEYMMELMDPALQLGEGSYYLTTTYGALEHIKSYDKITVTRQLSVEVQDSIHRWERRRTLNKARASRSSVQDFICVSYLEPEQQARTLASRADTQAQALCAQCAEKFAVERPQAHRLFVLVDGRCFQLADDALPHCIKGYLLRSEPKRDFHFVYRPLDGGGGGGGGSPPCLVVREPNFL
As to B1, the binding result was “binds”.
